In the assay the target is FLAG-emGFP-tagged C-terminally shortened RNPS1 (Del-C). Description: co-IP; FLAG-IP of FLAG-emGFP-tagged RNPS1 constructs from RNase A-treated HEK293 lysate, immunoblot (WB) of the eluate. A general note: A western blot detects proteins with antibodies after separation by electrophoresis.

Results are given in words; binding and its absence hold for the method and conditions named. Binding seen in cells or lysates may run through a third protein. Binding can be weak; no strength is given. Where a sequence is shown, tags or fusion partners need not be part of it.

B1: LUC7L3 (protein, UniProt O95232 1-432)
chain: MISAAQLLDELMGRDRNLAPDEKRSNVRWDHESVCKYYLCGFCPAELFTNTRSDLGPCEKIHDENLRKQYEKSSRFMKVGYERDFLRYLQSLLAEVERRIRRGHARLALSQNQQSSGAAGPTGKNEEKIQVLTDKIDVLLQQIEELGSEGKVEEAQGMMKLVEQLKEERELLRSTTSTIESFAAQEKQMEVCEVCGAFLIVGDAQSRVDDHLMGKQHMGYAKIKATVEELKEKLRKRTEEPDRDERLKKEKQEREEREKEREREREERERKRRREEEEREKERARDRERRKRSRSRSRHSSRTSDRRCSRSRDHKRSRSRERRRSRSRDRRRSRSHDRSERKHRSRSRDRRRSKSRDRKSYKHRSKSRDREQDRKSKEKEKRGSDDKKSSVKSGSREKQSEDTNTESKESDTKNEVNGTSEDIKSEGDTQSN
On to B1, for which the binding result is “binds”.

For the origin of these results see publication PMC9178013.
